Assay results: US11261166B2, “Lipophilic macrocyclic ligands, complexes thereof, and uses of same” (GUERBET, priority 2017, dated 2022)

Experiment: Radiolabeling of ligands G with yttrium 90 (radiolabeling yield)
Details: yttrium-90 chloride in acetate buffer pH=7 + ligand 10^-3 mol/L in ethanol, 90° C., 30 min
Description: “Radiolabeling yield” means the amount of radioactivity present in the form of a complex after the step of radiolabeling a ligand. This amount is expressed as a percentage of the radioactivity initially used expressed in curie or in becquerel.
Quality controls were performed by TLC on Whatman 1 paper, with MeOH/NEt3 0.1% mixture as eluent. The RadioChemical Purity (RCP) is determined using a Cyclone phosphoimager (Perkin Elmer), and processed with Optiquant software.
1 mL of yttrium-90 chloride in solution in an acetate buffer pH=7 is added to 1 mL of ligand G in solution in ethanol at a concentration of 10^−3 mol/L. The solution is heated at 90° C. for 30 min. The yttrium 90 complex J is thus obtained.
`CCCCCCC(C(=O)O)N1CCN(Cc2ccc(CCc3ccccc3)cc2)CCN(C(CCCCCC)C(=O)O)CCN(C(CCCCCC)C(=O)O)CC1` (stereo not drawn) [Ligand G9] gave a Radiolabeling yield of 82.3%. Compound `CCCCCCCCC(C(=O)O)N1CCN(Cc2ccc(CCc3ccccc3)cc2)CCN(C(CCCCCCCC)C(=O)O)CCN(C(CCCCCCCC)C(=O)O)CC1` (stereo not drawn) [Ligand G5] has a Radiolabeling yield of 98.7%. With `CCCCCCCCCCC(C(=O)O)N1CCN(Cc2ccc(CCCCCCCC)cc2)CCN(C(CCCCCCCCCC)C(=O)O)CCN(C(CCCCCCCCCC)C(=O)O)CC1` (stereo not drawn) [Ligand G2] the Radiolabeling yield was 14.1%. Compound `CCCCCCCCC(C(=O)O)N1CCN(Cc2cc(C(C)(C)C)cc(C(C)(C)C)c2)CCN(C(CCCCCCCC)C(=O)O)CCN(C(CCCCCCCC)C(=O)O)CC1` (stereo not drawn) [Ligand G3] has a Radiolabeling yield of 97.4%. `CCCCCCCCCCC(C(=O)O)N1CCN(Cc2cc(C(C)(C)C)cc(C(C)(C)C)c2)CCN(C(CCCCCCCCCC)C(=O)O)CCN(C(CCCCCCCCCC)C(=O)O)CC1` (stereo not drawn) [Ligand G1iso3] showed a Radiolabeling yield of 81.5%. `CCCCCCCCc1ccc(-c2ccc(CCN3CCN(C(CCCCCCCC)C(=O)O)CCN(C(CCCCCCCC)C(=O)O)CCN(C(CCCCCCCC)C(=O)O)CC3)cc2)cc1` (stereo not drawn) [Ligand G12] showed a Radiolabeling yield of 35.7%. For `CCCCCCCCCCC(C(=O)O)N1CCN(Cc2cc(C(C)(C)C)cc(C(C)(C)C)c2)CCN(C(CCCCCCCCCC)C(=O)O)CCN(C(CCCCCCCCCC)C(=O)O)CC1` (stereo not drawn) [Ligand G1iso1], the Radiolabeling yield was 89%. For `CCCCCCCCC(C(=O)O)N1CCN(Cc2cc(C(F)(F)F)cc(C(F)(F)F)c2)CCN(C(CCCCCCCC)C(=O)O)CCN(C(CCCCCCCC)C(=O)O)CC1` (stereo not drawn) [Ligand G4], the Radiolabeling yield was 96%. Compound `CCCCCCCCCCC(C(=O)O)N1CCN(Cc2cc(C(C)(C)C)cc(C(C)(C)C)c2)CCN(C(CCCCCCCCCC)C(=O)O)CCN(C(CCCCCCCCCC)C(=O)O)CC1` (stereo not drawn) [Ligand G1iso2] has a Radiolabeling yield of 94.4%. Work on `O=C(O)C(CCc1ccccc1)N1CCN(Cc2ccc(-c3ccccc3)cc2)CCN(C(CCc2ccccc2)C(=O)O)CCN(C(CCc2ccccc2)C(=O)O)CC1` (stereo not drawn) [Ligand G10] yielded a Radiolabeling yield of 90%. `CCCCCCCCC(C(=O)O)N1CCN(Cc2ccc(-c3ccccc3)cc2)CCN(C(CCCCCCCC)C(=O)O)CCN(C(CCCCCCCC)C(=O)O)CC1` (stereo not drawn) [Ligand G6] gave a Radiolabeling yield of 97.9%. With `CCCCCCCCCCC(C(=O)O)N1CCN(Cc2cc(C(C)(C)C)cc(C(C)(C)C)c2)CCN(C(CCCCCCCCCC)C(=O)O)CCN(C(CCCCCCCCCC)C(=O)O)CC1` (stereo not drawn) [Ligand G1iso4] the Radiolabeling yield was 95.5%. For `CCCCCCCCc1ccc(CN2CCN(C(CCCCCC)C(=O)O)CCN(C(CCCCCC)C(=O)O)CCN(C(CCCCCC)C(=O)O)CC2)cc1` (stereo not drawn) [Ligand G8], the Radiolabeling yield was 78.8%. With `CCCCCCCCC(C(=O)O)N1CCN(CCc2ccc(-c3ccc(CCCCC)cc3)cc2)CCN(C(CCCCCCCC)C(=O)O)CCN(C(CCCCCCCC)C(=O)O)CC1` (stereo not drawn) [Ligand G11] the Radiolabeling yield was 76.5%. Compound `CCCCCCCCc1ccc(CN2CCN(C(CCCCCCCC)C(=O)O)CCN(C(CCCCCCCC)C(=O)O)CCN(C(CCCCCCCC)C(=O)O)CC2)cc1` (stereo not drawn) [Ligand G7] has a Radiolabeling yield of 36.3%.
